Measured values reported in PMC11490886.
No constants are given. Whether binding was seen depends on the method and setting. In cells and extracts the contact can be indirect. Some entries that bind do so weakly or less than the wild type. Each block holds one molecule with its values, some of them ahead of it.

The chains behind the UniProt entries cited, without tags or fusion partners.
UniProt Q96CV9: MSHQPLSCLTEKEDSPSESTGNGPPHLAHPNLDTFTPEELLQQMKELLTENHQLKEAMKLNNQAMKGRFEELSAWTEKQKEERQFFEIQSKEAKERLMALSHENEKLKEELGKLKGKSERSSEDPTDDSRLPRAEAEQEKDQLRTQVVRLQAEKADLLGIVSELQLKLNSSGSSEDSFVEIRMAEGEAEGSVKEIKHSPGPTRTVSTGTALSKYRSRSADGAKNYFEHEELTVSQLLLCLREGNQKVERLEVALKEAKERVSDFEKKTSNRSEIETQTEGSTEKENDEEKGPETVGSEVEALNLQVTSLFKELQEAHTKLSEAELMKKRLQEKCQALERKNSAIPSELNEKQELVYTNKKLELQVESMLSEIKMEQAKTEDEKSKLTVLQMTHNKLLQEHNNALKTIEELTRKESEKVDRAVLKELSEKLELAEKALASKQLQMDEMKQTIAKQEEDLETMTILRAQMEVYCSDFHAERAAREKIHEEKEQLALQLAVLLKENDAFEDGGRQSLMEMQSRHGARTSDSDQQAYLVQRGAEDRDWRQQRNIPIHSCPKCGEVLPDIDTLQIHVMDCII
UniProt A7MCY6: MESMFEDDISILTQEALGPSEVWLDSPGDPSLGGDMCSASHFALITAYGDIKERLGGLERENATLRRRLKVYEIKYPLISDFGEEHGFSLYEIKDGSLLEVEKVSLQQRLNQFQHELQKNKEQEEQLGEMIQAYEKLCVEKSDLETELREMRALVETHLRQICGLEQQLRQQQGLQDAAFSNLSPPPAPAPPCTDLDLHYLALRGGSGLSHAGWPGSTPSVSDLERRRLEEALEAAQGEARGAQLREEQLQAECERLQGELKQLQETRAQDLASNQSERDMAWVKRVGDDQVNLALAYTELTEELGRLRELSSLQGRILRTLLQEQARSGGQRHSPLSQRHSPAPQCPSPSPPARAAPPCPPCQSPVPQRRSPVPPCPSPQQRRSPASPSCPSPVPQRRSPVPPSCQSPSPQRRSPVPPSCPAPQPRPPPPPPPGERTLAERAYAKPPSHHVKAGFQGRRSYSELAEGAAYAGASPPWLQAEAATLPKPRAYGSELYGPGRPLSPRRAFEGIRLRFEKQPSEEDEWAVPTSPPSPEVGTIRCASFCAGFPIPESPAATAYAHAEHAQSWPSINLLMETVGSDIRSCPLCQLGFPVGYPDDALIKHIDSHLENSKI

Target: 3FLAG-tagged OPTN (UniProt Q96CV9)
Test: co-IP; cells (Parkin-AAVS-HeLa, or OPTN-AZI2-TBKBP1 TKO HeLa with Parkin) stably expressing 3FLAG- and 3HA-tagged proteins, with or without valinomycin 30 min; cross-linked with 1 mM DSP in PBS, room temperature, 30 min; solubilised in 1% Triton X-100, 50 mM Tris-HCl pH 7.5, 150 mM NaCl; anti-FLAG (DDDDK) agarose, 4 °C, 1 h; immunoblot

binding: no binding
Molecule: 3HA-tagged TBKBP1 (from UniProt A7MCY6 1-615)

binding: binds
B1: TANK-binding kinase 1 (TBK1), endogenous (enzyme, UniProt Q9UHD2 1-729)
chain: MQSTSNHLWLLSDILGQGATANVFRGRHKKTGDLFAIKVFNNISFLRPVDVQMREFEVLKKLNHKNIVKLFAIEEETTTRHKVLIMEFCPCGSLYTVLEEPSNAYGLPESEFLIVLRDVVGGMNHLRENGIVHRDIKPGNIMRVIGEDGQSVYKLTDFGAARELEDDEQFVSLYGTEEYLHPDMYERAVLRKDHQKKYGATVDLWSIGVTFYHAATGSLPFRPFEGPRRNKEVMYKIITGKPSGAISGVQKAENGPIDWSGDMPVSCSLSRGLQVLLTPVLANILEADQEKCWGFDQFFAETSDILHRMVIHVFSLQQMTAHKIYIHSYNTATIFHELVYKQTKIISSNQELIYEGRRLVLEPGRLAQHFPKTTEENPIFVVSREPLNTIGLIYEKISLPKVHPRYDLDGDASMAKAITGVVCYACRIASTLLLYQELMRKGIRWLIELIKDDYNETVHKKTEVVITLDFCIRNIEKTVKVYEKLMKINLEAAELGEISDIHTKLLRLSSSQGTIETSLQDIDSRLSPGGSLADAWAHQEGTHPKDRNVEKLQVLLNCMTEIYYQFKKDKAERRLAYNEEQIHKFDKQKLYYHATKAMTHFTDECVKKYEAFLNKSEEWIRKMLHLRKQLLSLTNQCFDIEEEVSKYQEYTNELQETLPQKMFTASSGIKHTMTPIYPSSNTLVEMTLGMKKLKEEMEGVVKELAENNHILERFGSLTMDGGLRNVDCL
